This is an account of results in the supplement of paper PMC10849652.

Amino acid sequences for entries named in this document (tags omitted). A change or cut given only in a name is not applied to a line headed by its entry.
UniProt Q9BYI3: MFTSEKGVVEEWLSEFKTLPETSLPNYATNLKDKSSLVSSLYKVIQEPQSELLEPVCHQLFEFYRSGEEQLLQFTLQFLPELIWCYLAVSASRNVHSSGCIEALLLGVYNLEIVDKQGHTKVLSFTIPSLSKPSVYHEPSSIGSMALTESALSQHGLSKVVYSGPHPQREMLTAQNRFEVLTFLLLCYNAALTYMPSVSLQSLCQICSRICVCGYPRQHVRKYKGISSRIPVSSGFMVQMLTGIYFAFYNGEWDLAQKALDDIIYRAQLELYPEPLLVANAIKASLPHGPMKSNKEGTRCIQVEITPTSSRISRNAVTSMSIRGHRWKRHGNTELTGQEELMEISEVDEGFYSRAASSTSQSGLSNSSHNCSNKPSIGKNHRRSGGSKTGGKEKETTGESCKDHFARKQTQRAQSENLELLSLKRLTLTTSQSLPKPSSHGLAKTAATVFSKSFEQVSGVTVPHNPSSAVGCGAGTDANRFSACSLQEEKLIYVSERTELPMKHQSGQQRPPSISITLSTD
UniProt Q8IWE2: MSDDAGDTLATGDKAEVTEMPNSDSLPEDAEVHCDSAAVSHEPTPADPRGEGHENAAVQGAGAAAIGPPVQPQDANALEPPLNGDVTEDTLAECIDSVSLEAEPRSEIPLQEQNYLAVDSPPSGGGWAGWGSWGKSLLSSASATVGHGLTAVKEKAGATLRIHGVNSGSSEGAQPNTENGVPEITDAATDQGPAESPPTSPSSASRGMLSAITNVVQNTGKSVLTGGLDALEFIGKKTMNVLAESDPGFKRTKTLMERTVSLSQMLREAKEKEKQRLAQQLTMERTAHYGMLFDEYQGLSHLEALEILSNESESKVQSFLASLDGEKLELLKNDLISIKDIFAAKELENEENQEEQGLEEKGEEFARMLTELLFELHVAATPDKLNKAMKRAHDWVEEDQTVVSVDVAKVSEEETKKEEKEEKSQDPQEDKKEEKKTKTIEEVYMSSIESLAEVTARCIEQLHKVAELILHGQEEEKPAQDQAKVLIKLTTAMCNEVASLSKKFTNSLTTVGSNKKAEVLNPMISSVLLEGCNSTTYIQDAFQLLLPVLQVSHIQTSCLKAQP
UniProt Q8N612: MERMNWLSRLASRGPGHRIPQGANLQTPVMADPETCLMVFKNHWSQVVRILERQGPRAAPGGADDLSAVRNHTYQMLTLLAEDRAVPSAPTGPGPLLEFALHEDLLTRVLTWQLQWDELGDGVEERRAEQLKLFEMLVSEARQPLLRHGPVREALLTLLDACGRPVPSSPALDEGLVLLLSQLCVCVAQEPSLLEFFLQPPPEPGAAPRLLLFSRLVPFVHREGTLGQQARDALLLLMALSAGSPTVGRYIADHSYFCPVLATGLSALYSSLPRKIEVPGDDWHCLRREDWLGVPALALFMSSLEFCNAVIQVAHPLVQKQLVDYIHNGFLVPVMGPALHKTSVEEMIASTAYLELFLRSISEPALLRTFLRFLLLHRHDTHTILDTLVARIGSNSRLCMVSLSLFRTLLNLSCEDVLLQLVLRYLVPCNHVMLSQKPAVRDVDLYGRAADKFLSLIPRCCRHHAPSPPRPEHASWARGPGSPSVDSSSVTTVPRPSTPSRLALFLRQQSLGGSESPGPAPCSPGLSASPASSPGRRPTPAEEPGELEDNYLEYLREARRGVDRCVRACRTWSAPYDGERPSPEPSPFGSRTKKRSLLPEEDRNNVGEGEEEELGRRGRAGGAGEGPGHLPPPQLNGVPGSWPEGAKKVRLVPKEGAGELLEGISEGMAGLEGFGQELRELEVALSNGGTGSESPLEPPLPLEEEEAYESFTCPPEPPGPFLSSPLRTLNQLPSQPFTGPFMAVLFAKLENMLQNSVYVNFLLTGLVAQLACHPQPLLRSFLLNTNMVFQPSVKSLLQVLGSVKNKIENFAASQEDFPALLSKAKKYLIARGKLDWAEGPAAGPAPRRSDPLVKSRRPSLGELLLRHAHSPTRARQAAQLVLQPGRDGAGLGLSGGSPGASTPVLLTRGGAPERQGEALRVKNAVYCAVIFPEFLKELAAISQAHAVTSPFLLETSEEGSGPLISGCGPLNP
UniProt Q9H2F5, whole entry, looked up: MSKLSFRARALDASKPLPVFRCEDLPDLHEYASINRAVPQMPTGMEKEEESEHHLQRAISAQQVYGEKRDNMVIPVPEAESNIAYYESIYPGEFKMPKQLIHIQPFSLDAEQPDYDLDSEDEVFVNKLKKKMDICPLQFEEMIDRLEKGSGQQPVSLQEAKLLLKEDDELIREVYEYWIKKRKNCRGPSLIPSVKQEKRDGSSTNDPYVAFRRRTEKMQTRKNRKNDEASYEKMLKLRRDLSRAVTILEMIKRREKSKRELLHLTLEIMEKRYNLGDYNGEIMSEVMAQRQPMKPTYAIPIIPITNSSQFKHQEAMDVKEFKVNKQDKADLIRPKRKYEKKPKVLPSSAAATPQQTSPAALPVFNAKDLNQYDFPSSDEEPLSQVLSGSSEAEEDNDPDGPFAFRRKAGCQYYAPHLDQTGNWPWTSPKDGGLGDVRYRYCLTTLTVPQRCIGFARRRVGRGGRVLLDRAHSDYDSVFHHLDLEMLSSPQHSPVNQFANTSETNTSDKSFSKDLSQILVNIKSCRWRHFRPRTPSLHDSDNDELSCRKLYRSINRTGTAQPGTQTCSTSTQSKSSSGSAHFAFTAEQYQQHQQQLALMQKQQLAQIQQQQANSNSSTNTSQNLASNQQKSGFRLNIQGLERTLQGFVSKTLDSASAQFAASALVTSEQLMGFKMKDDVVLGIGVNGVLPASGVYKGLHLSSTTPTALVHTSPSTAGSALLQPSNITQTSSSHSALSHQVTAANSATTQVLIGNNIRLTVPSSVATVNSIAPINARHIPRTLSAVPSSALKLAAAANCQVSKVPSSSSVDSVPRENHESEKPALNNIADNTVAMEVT
UniProt Q8IXS8: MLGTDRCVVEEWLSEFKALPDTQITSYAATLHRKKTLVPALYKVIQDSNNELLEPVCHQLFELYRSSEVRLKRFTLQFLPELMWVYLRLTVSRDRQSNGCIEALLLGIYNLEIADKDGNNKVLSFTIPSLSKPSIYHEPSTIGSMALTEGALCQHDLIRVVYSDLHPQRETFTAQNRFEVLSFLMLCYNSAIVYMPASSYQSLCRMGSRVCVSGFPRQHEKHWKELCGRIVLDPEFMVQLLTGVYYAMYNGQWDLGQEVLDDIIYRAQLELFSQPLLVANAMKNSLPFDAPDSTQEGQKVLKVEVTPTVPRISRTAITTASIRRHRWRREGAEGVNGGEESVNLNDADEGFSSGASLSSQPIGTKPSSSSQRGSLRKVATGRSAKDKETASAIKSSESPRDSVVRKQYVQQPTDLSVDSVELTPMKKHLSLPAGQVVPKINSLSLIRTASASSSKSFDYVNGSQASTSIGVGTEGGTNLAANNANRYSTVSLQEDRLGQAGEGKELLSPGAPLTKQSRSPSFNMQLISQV
UniProt P00740, whole entry, looked up: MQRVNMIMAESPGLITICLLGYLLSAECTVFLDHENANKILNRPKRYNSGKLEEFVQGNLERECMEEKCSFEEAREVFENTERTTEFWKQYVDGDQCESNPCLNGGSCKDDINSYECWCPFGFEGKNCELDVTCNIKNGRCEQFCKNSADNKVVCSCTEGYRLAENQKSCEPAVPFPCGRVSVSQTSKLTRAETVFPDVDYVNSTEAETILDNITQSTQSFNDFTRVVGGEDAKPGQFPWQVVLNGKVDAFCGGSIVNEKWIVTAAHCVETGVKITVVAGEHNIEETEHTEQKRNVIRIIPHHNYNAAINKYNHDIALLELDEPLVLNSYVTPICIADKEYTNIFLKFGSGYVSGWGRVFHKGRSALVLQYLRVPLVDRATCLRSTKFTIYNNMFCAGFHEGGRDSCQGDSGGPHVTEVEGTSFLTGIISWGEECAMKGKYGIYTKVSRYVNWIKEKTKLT
UniProt P25116: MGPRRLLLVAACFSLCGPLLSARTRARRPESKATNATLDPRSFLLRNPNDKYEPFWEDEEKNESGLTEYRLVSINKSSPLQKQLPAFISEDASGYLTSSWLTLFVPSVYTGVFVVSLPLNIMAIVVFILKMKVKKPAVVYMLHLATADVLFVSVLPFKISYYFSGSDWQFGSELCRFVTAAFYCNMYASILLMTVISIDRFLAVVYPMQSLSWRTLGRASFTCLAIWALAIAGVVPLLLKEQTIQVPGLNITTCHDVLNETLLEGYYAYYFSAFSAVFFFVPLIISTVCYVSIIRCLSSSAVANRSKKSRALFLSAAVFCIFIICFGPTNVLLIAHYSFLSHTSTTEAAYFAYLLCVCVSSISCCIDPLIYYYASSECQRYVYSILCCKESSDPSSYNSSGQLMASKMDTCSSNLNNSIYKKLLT
UniProt Q6P179: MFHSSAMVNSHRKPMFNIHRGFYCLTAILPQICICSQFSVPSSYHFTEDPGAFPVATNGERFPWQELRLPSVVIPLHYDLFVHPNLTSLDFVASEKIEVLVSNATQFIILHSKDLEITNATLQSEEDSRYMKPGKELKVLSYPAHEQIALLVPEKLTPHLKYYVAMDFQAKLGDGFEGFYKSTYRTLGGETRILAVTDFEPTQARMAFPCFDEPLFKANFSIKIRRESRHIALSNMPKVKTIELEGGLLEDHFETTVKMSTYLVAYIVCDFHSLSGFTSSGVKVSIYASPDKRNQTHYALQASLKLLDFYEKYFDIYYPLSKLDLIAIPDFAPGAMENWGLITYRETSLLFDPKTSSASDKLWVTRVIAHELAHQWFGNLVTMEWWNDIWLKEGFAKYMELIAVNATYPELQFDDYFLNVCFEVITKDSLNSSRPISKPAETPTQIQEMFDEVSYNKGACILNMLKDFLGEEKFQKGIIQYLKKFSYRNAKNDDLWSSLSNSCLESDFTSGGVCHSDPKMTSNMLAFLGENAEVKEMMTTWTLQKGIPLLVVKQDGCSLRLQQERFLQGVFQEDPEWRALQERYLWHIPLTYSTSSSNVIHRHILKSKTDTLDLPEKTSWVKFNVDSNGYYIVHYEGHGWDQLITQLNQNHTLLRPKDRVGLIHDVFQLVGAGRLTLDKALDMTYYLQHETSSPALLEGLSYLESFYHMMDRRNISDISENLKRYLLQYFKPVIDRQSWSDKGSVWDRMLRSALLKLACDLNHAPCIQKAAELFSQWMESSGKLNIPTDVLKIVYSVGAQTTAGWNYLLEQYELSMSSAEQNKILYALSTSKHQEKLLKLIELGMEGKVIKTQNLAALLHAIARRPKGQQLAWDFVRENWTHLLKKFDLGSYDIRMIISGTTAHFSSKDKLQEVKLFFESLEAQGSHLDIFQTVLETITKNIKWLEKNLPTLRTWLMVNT
UniProt Q5VUB5: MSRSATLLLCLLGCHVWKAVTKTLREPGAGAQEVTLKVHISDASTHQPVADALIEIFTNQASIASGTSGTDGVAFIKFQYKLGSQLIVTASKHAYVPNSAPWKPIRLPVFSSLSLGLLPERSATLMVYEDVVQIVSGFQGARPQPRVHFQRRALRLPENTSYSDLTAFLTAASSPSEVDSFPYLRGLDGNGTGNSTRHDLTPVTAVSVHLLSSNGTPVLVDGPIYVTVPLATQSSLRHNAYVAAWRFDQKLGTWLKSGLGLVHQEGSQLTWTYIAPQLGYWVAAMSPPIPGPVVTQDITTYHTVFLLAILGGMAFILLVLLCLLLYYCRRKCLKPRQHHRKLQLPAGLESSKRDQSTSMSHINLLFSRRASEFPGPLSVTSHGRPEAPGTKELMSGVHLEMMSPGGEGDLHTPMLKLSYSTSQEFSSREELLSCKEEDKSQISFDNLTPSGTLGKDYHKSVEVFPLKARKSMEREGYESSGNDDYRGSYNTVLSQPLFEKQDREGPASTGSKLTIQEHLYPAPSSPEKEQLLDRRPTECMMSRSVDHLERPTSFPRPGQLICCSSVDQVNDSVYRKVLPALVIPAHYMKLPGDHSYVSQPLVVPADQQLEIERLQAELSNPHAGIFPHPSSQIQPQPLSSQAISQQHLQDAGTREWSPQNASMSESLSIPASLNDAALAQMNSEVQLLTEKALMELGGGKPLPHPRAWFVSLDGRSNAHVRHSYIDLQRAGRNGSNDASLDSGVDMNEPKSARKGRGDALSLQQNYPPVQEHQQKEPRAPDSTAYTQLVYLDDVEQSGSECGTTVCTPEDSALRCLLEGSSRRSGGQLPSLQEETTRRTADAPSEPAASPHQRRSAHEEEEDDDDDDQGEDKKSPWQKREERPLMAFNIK

The list shows a part of the results.

Compound in the first assay: CC1=C(C=C(C=C1)NC(=O)C2=CC(=CC=C2)N(C)C)NC(=O)C3=CC=C(C=C3)O
Kind of assay: log2 fold change, soluble protein after heating vs DMSO (PISA); higher = thermal stabilisation; K562 cells, 10 uM, 30 min; active = over 0.2 and 3.5 SD of the protein, either way, in both replicates (recomputed). The method in brief:
(§1)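 Thermal stability values are relative to control samples and come from duplicates. They are expressed as log2 fold changes. For measurement, K562 cells (2×10^6 cells/mL) received 10 μM compound for 30 min, and aliquots were heated for 3 min over 48°C-58°C, pooled, and extracted at 4°C in PBS with 0.5% NP-40. Soluble protein, the supernatant after 21,000xg for 90 min, was quantified by TMTpro 16plex LC-MS/MS with equalised channel sums.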
As for FAM126A (UniProt Q9BYI3), the log2 fold change is inactive: 0.143.
FAM114A1 (UniProt Q8IWE2): the log2 fold change was inactive: -0.155.
As for FAM160A2 isoform 2 (UniProt Q8N612), the log2 fold change was inactive: 0.134.
The same measure, in the same setting: to FAM171A2 (UniProt A8MVW0) belongs inactive: -0.228.
As to EPC1 (UniProt Q9H2F5), the log2 fold change was inactive: 0.097.
On the same count and under the same terms, under FAM117B (UniProt Q6P1L5) stands inactive: -0.035.

Compound in another assay: CC1=CC=C(C=C1)SC2=C3C=C(SC3=CN=C2)C(=O)N
The description is as above. A digest of the protocol: as §1
Consider ERICH1 (UniProt Q86X53), for which the log2 fold change was inactive: -0.054.
Same read-out and setting: under FAM126B (UniProt Q8IXS8) stands inactive: 0.134; under F9 (UniProt P00740), inactive: 0.076; under EWSR1 (UniProt H7BY36), inactive: -0.043.
Regarding F2R (UniProt P25116), the log2 fold change was inactive: 0.256.
As for ERAP2 (UniProt Q6P179), the log2 fold change was inactive: -0.019.
On to FAM171A1 (UniProt Q5VUB5), for which the log2 fold change is inactive: -0.012.
